# Measured values: paper PMC11582751
# The chains behind the UniProt entries cited, without tags or fusion partners.
# UniProt Q9H8S9: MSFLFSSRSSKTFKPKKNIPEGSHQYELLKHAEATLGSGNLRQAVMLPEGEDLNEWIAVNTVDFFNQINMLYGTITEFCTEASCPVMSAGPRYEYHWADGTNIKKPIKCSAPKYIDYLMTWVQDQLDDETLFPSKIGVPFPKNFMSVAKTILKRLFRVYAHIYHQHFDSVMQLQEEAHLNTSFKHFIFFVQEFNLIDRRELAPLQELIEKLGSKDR
# UniProt Q15208: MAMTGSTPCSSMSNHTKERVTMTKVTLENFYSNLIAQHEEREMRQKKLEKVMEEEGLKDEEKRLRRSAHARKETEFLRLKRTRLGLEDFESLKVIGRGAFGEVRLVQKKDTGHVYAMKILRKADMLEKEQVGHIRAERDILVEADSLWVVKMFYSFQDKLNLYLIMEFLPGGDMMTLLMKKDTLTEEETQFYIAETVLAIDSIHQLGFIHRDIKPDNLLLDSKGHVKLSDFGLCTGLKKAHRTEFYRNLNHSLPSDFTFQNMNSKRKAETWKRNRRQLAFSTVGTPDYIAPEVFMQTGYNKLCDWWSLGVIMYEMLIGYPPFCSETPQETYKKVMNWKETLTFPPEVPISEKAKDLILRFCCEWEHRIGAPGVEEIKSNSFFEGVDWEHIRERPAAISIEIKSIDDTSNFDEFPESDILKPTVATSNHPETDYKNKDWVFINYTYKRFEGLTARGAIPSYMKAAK
# UniProt Q9Y2H1: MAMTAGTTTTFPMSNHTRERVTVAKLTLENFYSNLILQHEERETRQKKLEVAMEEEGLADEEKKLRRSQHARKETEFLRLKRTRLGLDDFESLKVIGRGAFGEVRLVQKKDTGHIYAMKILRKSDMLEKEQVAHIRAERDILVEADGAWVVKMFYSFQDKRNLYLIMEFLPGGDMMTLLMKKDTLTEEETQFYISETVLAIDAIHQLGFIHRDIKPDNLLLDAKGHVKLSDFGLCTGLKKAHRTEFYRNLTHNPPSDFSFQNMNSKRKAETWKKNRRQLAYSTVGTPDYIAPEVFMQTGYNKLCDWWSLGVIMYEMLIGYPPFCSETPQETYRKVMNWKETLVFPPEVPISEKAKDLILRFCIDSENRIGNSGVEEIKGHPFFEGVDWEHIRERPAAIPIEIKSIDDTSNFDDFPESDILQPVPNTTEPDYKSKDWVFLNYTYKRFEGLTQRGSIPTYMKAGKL
# Residue numbers refer to the chain shown, from its start. Results are given in words; binding and its absence hold for the method and conditions named. Binding seen in cells or lysates may run through a third protein. Some results given as binding are weak or reduced against the parent protein; the word gives no strength. For part of these data: Sequences can lack the tags named with a protein.
# What was measured:
# SFB-VANGL1 (human) = target: T1, SFB-VANGL1 (human) (UniProt Q8TAA9); test: pull-down; HEK293T cells transfected with HA-NF2 constructs and SFB-tagged LATS1, AMOT or VANGL1; pulldown assay
# T1 sequence: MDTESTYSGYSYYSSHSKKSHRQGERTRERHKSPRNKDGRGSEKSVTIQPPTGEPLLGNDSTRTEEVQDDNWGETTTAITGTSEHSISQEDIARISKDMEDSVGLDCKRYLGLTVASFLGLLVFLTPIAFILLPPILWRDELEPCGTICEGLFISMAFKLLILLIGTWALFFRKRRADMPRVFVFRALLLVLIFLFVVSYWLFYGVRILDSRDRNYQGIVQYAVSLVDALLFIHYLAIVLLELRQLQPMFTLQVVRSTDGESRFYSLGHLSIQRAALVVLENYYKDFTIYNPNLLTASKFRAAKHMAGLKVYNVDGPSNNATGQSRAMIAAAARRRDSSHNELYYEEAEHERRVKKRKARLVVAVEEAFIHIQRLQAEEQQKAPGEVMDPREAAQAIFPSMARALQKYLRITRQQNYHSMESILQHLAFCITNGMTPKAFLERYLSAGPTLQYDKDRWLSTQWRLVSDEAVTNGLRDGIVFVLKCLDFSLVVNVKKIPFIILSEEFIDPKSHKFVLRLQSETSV
# SFB-tagged LATS1 (human) = target: T2, SFB-tagged LATS1 (human) (UniProt O95835); test: as above
# T2 sequence: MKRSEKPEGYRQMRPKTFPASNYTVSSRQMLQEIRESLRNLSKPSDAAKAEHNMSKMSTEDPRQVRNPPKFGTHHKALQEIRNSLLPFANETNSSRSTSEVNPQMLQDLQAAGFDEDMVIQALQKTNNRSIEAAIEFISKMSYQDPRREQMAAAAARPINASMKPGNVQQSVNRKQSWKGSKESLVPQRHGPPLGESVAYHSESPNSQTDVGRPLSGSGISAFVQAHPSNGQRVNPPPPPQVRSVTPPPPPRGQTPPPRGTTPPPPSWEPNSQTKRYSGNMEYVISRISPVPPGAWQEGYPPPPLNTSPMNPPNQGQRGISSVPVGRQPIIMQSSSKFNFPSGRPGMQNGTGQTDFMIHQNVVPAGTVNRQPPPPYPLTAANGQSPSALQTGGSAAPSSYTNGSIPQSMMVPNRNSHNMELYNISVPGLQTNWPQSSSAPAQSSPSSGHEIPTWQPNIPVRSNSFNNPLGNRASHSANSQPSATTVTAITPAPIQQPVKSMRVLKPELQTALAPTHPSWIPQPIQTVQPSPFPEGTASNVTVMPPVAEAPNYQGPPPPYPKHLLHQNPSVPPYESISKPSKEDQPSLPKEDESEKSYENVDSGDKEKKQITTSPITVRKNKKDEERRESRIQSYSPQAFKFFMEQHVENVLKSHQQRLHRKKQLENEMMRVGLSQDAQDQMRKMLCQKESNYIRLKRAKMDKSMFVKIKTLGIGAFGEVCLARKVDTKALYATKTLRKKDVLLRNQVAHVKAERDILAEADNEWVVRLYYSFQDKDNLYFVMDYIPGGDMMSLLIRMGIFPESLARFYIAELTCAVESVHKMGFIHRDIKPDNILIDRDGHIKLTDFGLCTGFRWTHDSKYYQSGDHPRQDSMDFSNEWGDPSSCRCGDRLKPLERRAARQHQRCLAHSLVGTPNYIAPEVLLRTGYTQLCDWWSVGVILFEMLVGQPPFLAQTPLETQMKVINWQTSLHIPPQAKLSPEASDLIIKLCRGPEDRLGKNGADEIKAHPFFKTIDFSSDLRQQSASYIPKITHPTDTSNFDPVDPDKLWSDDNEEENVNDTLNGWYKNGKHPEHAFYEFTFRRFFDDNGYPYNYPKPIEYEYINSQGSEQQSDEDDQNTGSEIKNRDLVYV
# SFB-tagged MOB1B (human) = target: T3, SFB-tagged MOB1B (human) (UniProt Q7L9L4); test: pull-down; MOB1A/B and their H161 mutants with STK38 or STK38L (Supplementary Fig. 12c-f; legends not shown)
# T3 sequence: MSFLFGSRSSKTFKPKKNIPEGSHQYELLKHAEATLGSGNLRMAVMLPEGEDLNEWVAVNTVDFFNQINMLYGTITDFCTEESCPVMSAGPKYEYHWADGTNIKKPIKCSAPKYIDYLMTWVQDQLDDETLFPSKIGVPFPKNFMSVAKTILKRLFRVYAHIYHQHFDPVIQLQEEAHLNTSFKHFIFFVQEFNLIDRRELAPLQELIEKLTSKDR
# SFB-tagged MOB1A (human) = target: T4, SFB-tagged MOB1A (human) (UniProt Q9H8S9); test: as above
# T4 sequence: T3 sequence with G6S, M43Q, V57I, D77E, E82A, K92R, P169S, I171M, T212G
substance,measurement,setting,value
HA-NF2 L46R (from UniProt P35240 1-595),binding,SFB-VANGL1 (human),binds
HA-NF2 (from UniProt P35240 1-595),binding,SFB-tagged LATS1 (human),binds
STK38 (from UniProt Q15208 1-465),binding,SFB-tagged MOB1B (human),binds
same,binding,SFB-tagged MOB1A (human),binds
HA-NF2 L208P (from UniProt P35240 1-595),binding,SFB-VANGL1 (human),binds
HA-NF2 L141R (from UniProt P35240 1-595),binding,SFB-VANGL1 (human),binds
STK38L (from UniProt Q9Y2H1 1-464),binding,SFB-tagged MOB1B (human),binds
same,binding,SFB-tagged MOB1A (human),binds
HA-NF2 A211D (from UniProt P35240 1-595),binding,SFB-VANGL1 (human),binds
